# From PubChem BioAssay AID330 (DTP/NCI, 2004)
# The list is a part of this screen's results and no random one: it is rich in T/C values a quarter to a half above the control, in often repeated tests (any T/C) and in doses without a T/C. Further doses and runs are listed elsewhere. T/C: endpoint of the treated group in % of that of the vehicle group. Some entries give survivors of the animals treated and no T/C: the source holds a T/C of zero for them, seemingly a mark for toxic or unscored doses. Some survivor counts are full or nearly so, which does not show that the dose was tolerated: the source hardly ever lists a survival T/C far under the control, and the zero likely stands for such cases as well. Counts of survivors are from the toxicity check (mostly the fifth day) where no day follows; animals may have died later. Schedule codes are those of the source, read here as Q, the interval in days (D) or hours (H), X, the number of doses. Some entries hold several experiments; the values are given in rising order. Additions like (4×) count equal records among those shown. Where survival is the endpoint, the PubChem record calls one and a half times the control and up active, and a quarter to a half above the control has no call in these data; cut-offs in other NCI protocols can differ. Some T/C values are followed by the survivors on the day toxicity was checked, most often the fifth; where none is given, no animal had died by that day.
# Tested on: P388 leukemia ip, CD2F1 mice, survival T/C
# Assay: NCI In Vivo Anticancer Drug Screen. Data for tumor model P388 Leukemia (intraperitoneal) in CD2F1 (CDF1) mice
# Settings: T/C endpoint: median survival time, higher T/C = longer survival
# [1] = dose: 50.0 mg/kg/injection, schedule: Q01DX009 (ip), vehicle: saline
# [2] = dose: 100.0 mg/kg/injection, schedule: Q01DX009 (ip), vehicle: saline
# [3] = dose: 200.0 mg/kg/injection, schedule: Q01DX009 (ip), vehicle: saline
# [4] = dose: 400.0 mg/kg/injection, schedule: Q01DX009 (ip), vehicle: saline
# [5] = dose: 200.0 mg/kg/injection, schedule: Q01DX009 (ip), vehicle: Klucel (hydroxypropylcellulose) (HPC)
# [6] = dose: 50.0 mg/kg/injection, schedule: Q01DX009 (ip), vehicle: Klucel (hydroxypropylcellulose) (HPC)
# [7] = dose: 100.0 mg/kg/injection, schedule: Q01DX009 (ip), vehicle: Klucel (hydroxypropylcellulose) (HPC)
# [8] = dose: 240.0 mg/kg/injection, schedule: Q01DX005 (ip), vehicle: Klucel (hydroxypropylcellulose) (HPC)
smiles,measurement,setting,value
CCOC(=O)C[N+]1(C)C2CCC1CC(OC(=O)C(CO)c1ccccc1)C2 (stereo not drawn),survivor count,[1],3 of 6 and 5 of 6
same,survivor count,[2],0 of 6
same,survivor count,[3],0 of 6
COc1cc2c(cc1-c1coc3cc4occc4cc3c1=O)OCO2,survivor count,"dose: 17.5 mg/kg/injection, schedule: Q01DX005 (ip), vehicle: saline with Tween-80",6 of 6
COc1cccc(OC)c1C(c1c(OC)cccc1OC)c1c(OC)cccc1OC,T/C,"dose: 50.0 mg/kg/injection, schedule: Q04DX003 (ip), vehicle: saline with Tween-80",127 % of control
c1cc2n(n1)CCN2,T/C,"dose: 180.0 mg/kg/injection, schedule: Q01DX009 (ip), vehicle: saline",130 % of control
same,survivor count,[3],2 of 6
same,T/C,"dose: 270.0 mg/kg/injection, schedule: Q01DX009 (ip), vehicle: saline",148 % of control
same,survivor count,[4],1 of 6 (2×)
same,T/C,"dose: 450.0 mg/kg/injection, schedule: Q03DX003 (ip), vehicle: saline",126 % of control
same,survivor count,"dose: 600.0 mg/kg/injection, schedule: Q04DX003 (ip), vehicle: saline",5 of 6
C/C(=N\NC(N)=S)c1ccc2c(c1)Cc1cc(/C(C)=N/NC(N)=S)ccc1-2,survivor count,"dose: 400.0 mg/kg/injection, schedule: Q04DX002 (ip), vehicle: saline with Tween-80",6 of 6
C=CCc1cc(OC)c(OCC=O)c(OC)c1,survivor count,"dose: 400.0 mg/kg/injection, schedule: Q04DX002 (ip), vehicle: Klucel (hydroxypropylcellulose) (HPC)",0 of 6
ClC(Cl)(Cl)C1[O][Sb]([c]2ccccc2)([c]2ccccc2)([c]2ccccc2)[O]1 (stereo not drawn),survivor count,[5],0 of 6
C/C=C(/C(=O)O)S(=O)(=O)O.[Ag],survivor count,"dose: 40.0 mg/kg/injection, schedule: Q01DX009 (ip), vehicle: saline with Tween-80",1 of 6
same,survivor count,"dose: 80.0 mg/kg/injection, schedule: Q01DX009 (ip), vehicle: saline with Tween-80",0 of 6
[I][Hg][CH]1CCC2CCCC1O2 (stereo not drawn),survivor count,[6],2 of 6
CN(C)P(=O)(N=S=NC(C)(C)C)N(C)C,survivor count,[3],0 of 6
ClC1(Cl)C(=C=C2C3CC4CC(C3)CC2C4)C12C1CC3CC(C1)CC2C3 (stereo not drawn),survivor count,[6],6 of 6
C=CCSC(=S)Nc1nc2ccc([N+](=O)[O-])cc2s1,survivor count,[6],6 of 6
same,survivor count,[7],6 of 6
same,survivor count,[5],0 of 6
CCC(=N\N=C(N)N)/C(CC)=N/N=C(N)N,survivor count,"dose: 240.0 mg/kg/injection, schedule: Q01DX005 (ip), vehicle: saline with Tween-80",0 of 6
CCCCN(CCCC)C(=N)c1ccc(OC)c(OC)c1,survivor count,"dose: 50.0 mg/kg/injection, schedule: Q01DX005 (ip), vehicle: saline",1 of 5
same,survivor count,"dose: 100.0 mg/kg/injection, schedule: Q01DX005 (ip), vehicle: saline",0 of 5
same,survivor count,"dose: 200.0 mg/kg/injection, schedule: Q01DX005 (ip), vehicle: saline",0 of 5
CN(C)[C@@H]1C(=O)C(C(N)=O)=C(O)[C@@]2(O)C(=O)C3=C(O)c4c(O)cccc4C[C@H]3C[C@@H]12,T/C,"dose: 30.0 mg/kg/injection, schedule: Q01DX010 (ip), vehicle: saline",125 % of control [5 of 6 alive]
same,survivor count,"dose: 60.0 mg/kg/injection, schedule: Q01DX010 (ip), vehicle: saline",4 of 6
CS(=O)(=O)c1ccc(/C(=N/N)c2ccccc2)cc1,survivor count,[7],4 of 6
same,survivor count,[5],0 of 6
CN1CCN(c2ccc3nc(-c4ccc5nc(-c6ccc(O)cc6)[nH]c5c4)[nH]c3c2)CC1,T/C,"dose: 25.0 mg/kg/injection, schedule: Q01DX009 (ip), vehicle: saline",135 % of control
same,T/C,"dose: 30.0 mg/kg/injection, schedule: Q01DX009 (ip), vehicle: saline, evaluated on day 30",144 and 149 % of control
same,T/C,"dose: 30.0 mg/kg/injection, schedule: Q01DX009 (ip), vehicle: saline, evaluated on day 45","148, 153, 158, 161 % of control"
same,T/C,"dose: 30.0 mg/kg/injection, schedule: Q01DX009 (ip), vehicle: saline, evaluated on day 60",150 % of control
same,T/C,"dose: 44.0 mg/kg/injection, schedule: Q01DX009 (ip), vehicle: saline, evaluated on day 30","148, 156, 158, 159 % of control"
same,T/C,"dose: 44.0 mg/kg/injection, schedule: Q01DX009 (ip), vehicle: saline, evaluated on day 45","149, 155, 156, 158, 162, 163 % of control"
same,T/C,"dose: 44.0 mg/kg/injection, schedule: Q01DX009 (ip), vehicle: saline, evaluated on day 60",150 and 160 % of control
same,T/C,[1],135 % of control
same,T/C,"dose: 67.0 mg/kg/injection, schedule: Q01DX009 (ip), vehicle: saline, evaluated on day 30","159, 161, 162, 163, 169 % of control"
same,T/C,"dose: 67.0 mg/kg/injection, schedule: Q01DX009 (ip), vehicle: saline, evaluated on day 45","146, 156, 158, 159 (2×), 161 % of control"
same,T/C,"dose: 67.0 mg/kg/injection, schedule: Q01DX009 (ip), vehicle: saline, evaluated on day 60","150 [7 of 9 alive], 154, 155 % of control"
same,T/C,"dose: 100.0 mg/kg/injection, schedule: Q01DX009 (ip), vehicle: saline, evaluated on day 30","150 (2×), 152 [9 of 10 alive], 154, 159 % of control (3×)"
same,T/C,"dose: 100.0 mg/kg/injection, schedule: Q01DX009 (ip), vehicle: saline, evaluated on day 45","155, 159 (2×), 161, 166, 174 % of control"
same,T/C,"dose: 100.0 mg/kg/injection, schedule: Q01DX009 (ip), vehicle: saline, evaluated on day 60",156 and 158 % of control (2×)
same,T/C,"dose: 125.0 mg/kg/injection, schedule: Q01DX009 (ip), vehicle: saline",137 % of control [9 of 10 alive]
same,T/C,"dose: 150.0 mg/kg/injection, schedule: Q01DX009 (ip), vehicle: saline, evaluated on day 30","95, 100, 105, 148, 165 % of control"
same,T/C,"dose: 150.0 mg/kg/injection, schedule: Q01DX009 (ip), vehicle: saline, evaluated on day 45","104, 125, 151, 155, 183 % of control"
same,T/C,"dose: 150.0 mg/kg/injection, schedule: Q01DX009 (ip), vehicle: saline, evaluated on day 60","140 [8 of 9 alive], 141, 171 % of control"
same,survivor count,[3],4 of 6 and 6 of 6
O=C1OI(O)c2ccccc21,survivor count,[8],0 of 6
CC1=C(CCC(C)NCc2ccc(OCCCN3CCCCC3)cc2)C(C)(C)CCC1 (stereo not drawn),survivor count,"dose: 50.0 mg/kg/injection, schedule: Q01DX005 (ip), vehicle: Klucel (hydroxypropylcellulose) (HPC)",0 of 5
same,survivor count,"dose: 100.0 mg/kg/injection, schedule: Q01DX005 (ip), vehicle: Klucel (hydroxypropylcellulose) (HPC)",0 of 5
same,survivor count,"dose: 200.0 mg/kg/injection, schedule: Q01DX005 (ip), vehicle: Klucel (hydroxypropylcellulose) (HPC)",0 of 5
C=C(C)C1CCC=CC(=O)C1 (stereo not drawn),survivor count,"dose: 400.0 mg/kg/injection, schedule: Q04DX003 (ip), vehicle: Klucel (hydroxypropylcellulose) (HPC)",0 of 6
CCN(CC)Cc1cc(Nc2ccnc3cc(N(C)C)ccc23)ccc1O,survivor count,[1],5 of 6
same,survivor count,[2],0 of 6
same,survivor count,[3],0 of 6
COc1cc2ccc3c(c2cc1OC)N(C)C(OC)c1cc2c(cc1-3)OCO2 (stereo not drawn),T/C,"dose: 20.0 mg/kg/injection, schedule: Q01DX009 (ip), vehicle: Klucel (hydroxypropylcellulose) (HPC)",142 % of control
same,survivor count,"dose: 160.0 mg/kg/injection, schedule: Q01DX009 (ip), vehicle: Klucel (hydroxypropylcellulose) (HPC)",6 of 6
N=[N+]=CC(=O)CC(N)C(=O)O (stereo not drawn),T/C,[3],126 % of control
same,T/C,[4],126 % of control
COC1=C(N2CC2)C(=O)C(OC)=C(N2CC2)C1=O,T/C,"dose: 2.6 mg/kg/injection, schedule: Q04DX003 (ip), vehicle: saline with Tween-80",130 % of control
same,T/C,"dose: 4.0 mg/kg/injection, schedule: Q04DX003 (ip), vehicle: saline with Tween-80",135 % of control
same,survivor count,"dose: 6.0 mg/kg/injection, schedule: Q04DX003 (ip), vehicle: saline with Tween-80",3 of 6
same,survivor count,"dose: 8.0 mg/kg/injection, schedule: Q04DX003 (ip), vehicle: saline with Tween-80",6 of 6
same,survivor count,"dose: 16.0 mg/kg/injection, schedule: Q04DX003 (ip), vehicle: saline with Tween-80",2 of 6
OCCNCCNCC[OH2+].OCCNCCNCC[OH2+].[Ni+2].[O-][Cl+3]([O-])([O-])[O-],survivor count,[1],5 of 6
CC1CCCCN1C=C1C(=O)OC(C)(C)OC1=O (stereo not drawn),survivor count,[8],2 of 6
